Test results from patent US6936690 (Takeda / Millennium, dated 2005).
No constants are given. Whether binding was seen depends on the method and setting. In cells and extracts the contact can be indirect. Some binding calls cover weakened binding; strength is not graded here. For part of these data: Sequences can lack the tags named with a protein.

Sequences of proteins named here, by UniProt entry; tags and fusion partners are left off. A change or cut given only in a name is not applied to a line headed by its entry.
UniProt Q9BXL6: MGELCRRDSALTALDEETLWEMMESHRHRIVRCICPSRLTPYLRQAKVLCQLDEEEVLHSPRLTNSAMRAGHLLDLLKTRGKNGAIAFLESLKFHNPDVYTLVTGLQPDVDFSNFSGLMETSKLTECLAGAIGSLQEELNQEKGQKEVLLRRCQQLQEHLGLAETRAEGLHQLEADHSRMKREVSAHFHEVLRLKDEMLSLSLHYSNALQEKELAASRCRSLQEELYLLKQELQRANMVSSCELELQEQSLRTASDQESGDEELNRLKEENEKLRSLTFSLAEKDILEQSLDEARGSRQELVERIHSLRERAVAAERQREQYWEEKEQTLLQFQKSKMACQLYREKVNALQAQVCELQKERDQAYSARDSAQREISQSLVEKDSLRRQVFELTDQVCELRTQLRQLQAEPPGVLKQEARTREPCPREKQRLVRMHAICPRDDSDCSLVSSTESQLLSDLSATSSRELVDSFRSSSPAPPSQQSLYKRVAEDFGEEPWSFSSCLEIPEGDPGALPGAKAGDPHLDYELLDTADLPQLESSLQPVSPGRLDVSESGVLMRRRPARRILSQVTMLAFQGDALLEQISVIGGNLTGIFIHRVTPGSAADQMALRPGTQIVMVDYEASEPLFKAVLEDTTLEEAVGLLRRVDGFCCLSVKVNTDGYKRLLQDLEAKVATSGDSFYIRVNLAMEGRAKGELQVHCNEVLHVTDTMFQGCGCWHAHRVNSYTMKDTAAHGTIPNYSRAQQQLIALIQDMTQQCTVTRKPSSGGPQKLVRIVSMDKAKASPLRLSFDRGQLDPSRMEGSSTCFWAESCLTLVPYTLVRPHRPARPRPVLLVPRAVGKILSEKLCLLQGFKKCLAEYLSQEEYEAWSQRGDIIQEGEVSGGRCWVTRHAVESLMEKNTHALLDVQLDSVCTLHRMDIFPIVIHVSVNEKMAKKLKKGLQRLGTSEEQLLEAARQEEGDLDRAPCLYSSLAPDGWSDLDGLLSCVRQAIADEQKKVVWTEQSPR

Columns and labels:
[1] = biological target: T1, endogenous Bcl-10 of 293T cells (UniProt O95999); assay: co-immunoprecipitation from 293T cells, anti-Myc immunoblot
T1 sequence (looked up): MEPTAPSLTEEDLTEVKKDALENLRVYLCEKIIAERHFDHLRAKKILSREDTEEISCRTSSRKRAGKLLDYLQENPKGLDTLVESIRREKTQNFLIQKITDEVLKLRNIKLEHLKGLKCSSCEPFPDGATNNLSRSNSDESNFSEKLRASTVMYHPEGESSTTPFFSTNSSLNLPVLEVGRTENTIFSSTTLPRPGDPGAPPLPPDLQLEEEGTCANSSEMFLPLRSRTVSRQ

[2] = biological target: T1, endogenous Bcl-10 of 293T cells; assay: co-immunoprecipitation from 293T lysate with Bcl-10 monoclonal antibody, anti-Myc immunoblot
[3] = biological target: T2, GST-Bcl-10 wild type (UniProt O95999); assay: GST pull-down on glutathione-sepharose, autoradiography
T2 sequence (looked up): T1 sequence (looked up)

| Substance | binding [1] | binding [2] | binding [3] |
| --- | --- | --- | --- |
| Myc-tagged CARD-14 (full-length CARD-14 with C-terminal Myc epitopes, pCMV-Tag 5A) (from UniProt Q9BXL6 1-1004) | binds | binds | – |
| CARD-14 protein labeled with 35S-methionine (from UniProt Q9BXL6 1-1004) | – | – | binds |
